# Laboratory results from the supplement of paper PMC11732987, “Enantioselective OTUD7B fragment discovery through chemoproteomics screening and high-throughput optimisation” (Communications Chemistry, 2025).
# Chains of the proteins cited; added tags and fusions are not shown. Lines headed by an entry give the natural chain unless they say otherwise; changes in a name come on top. Residues count along the entry.
# UniProt Q8TEQ6: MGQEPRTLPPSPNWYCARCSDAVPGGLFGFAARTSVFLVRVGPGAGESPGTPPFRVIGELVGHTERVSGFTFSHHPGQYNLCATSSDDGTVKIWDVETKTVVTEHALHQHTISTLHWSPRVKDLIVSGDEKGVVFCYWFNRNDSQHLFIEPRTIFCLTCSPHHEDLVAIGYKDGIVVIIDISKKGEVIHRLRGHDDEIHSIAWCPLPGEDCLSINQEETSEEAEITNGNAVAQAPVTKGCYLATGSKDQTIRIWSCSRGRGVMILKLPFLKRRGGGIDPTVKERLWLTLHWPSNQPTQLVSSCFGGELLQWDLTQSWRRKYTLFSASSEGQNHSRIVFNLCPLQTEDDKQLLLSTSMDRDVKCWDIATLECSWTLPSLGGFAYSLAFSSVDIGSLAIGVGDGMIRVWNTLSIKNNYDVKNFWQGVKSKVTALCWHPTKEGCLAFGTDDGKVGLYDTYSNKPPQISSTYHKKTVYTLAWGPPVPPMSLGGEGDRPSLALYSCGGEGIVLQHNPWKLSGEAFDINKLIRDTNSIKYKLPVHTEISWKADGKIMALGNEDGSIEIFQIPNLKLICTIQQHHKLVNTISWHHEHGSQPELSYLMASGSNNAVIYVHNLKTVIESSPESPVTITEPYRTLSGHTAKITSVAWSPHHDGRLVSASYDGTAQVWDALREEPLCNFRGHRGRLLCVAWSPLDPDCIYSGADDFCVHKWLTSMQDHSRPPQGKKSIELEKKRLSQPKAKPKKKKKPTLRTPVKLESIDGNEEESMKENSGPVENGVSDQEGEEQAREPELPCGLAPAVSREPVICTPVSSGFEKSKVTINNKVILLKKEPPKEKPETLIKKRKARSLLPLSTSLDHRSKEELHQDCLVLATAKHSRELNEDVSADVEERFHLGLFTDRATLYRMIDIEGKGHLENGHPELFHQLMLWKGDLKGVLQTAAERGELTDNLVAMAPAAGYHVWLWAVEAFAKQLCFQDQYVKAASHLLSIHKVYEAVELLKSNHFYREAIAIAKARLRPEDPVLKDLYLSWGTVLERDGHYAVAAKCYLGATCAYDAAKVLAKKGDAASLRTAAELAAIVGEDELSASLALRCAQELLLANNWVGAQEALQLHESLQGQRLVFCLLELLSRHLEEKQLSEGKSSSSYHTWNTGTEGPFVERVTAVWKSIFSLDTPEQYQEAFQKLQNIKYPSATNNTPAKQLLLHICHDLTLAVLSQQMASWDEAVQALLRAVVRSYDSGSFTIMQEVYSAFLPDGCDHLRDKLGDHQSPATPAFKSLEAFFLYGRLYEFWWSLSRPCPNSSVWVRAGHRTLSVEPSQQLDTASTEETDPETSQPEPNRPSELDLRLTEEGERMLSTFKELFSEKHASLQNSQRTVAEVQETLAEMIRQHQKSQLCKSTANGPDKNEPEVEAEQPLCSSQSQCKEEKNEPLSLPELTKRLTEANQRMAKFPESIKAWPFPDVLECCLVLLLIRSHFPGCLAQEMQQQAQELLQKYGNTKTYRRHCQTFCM
# UniProt P15170: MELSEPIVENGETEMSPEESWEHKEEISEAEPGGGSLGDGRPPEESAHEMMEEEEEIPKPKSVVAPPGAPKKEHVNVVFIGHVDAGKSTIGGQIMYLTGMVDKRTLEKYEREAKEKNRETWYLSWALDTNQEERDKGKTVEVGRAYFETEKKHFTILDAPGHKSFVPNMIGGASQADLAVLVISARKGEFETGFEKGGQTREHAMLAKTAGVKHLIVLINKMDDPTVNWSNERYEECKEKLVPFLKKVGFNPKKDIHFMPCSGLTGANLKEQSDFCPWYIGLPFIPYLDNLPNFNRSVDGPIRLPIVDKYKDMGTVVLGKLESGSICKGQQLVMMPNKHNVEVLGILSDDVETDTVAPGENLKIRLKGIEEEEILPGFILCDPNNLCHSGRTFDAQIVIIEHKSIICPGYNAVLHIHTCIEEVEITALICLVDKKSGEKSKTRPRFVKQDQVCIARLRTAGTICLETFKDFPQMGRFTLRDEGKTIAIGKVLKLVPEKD
# UniProt P00367: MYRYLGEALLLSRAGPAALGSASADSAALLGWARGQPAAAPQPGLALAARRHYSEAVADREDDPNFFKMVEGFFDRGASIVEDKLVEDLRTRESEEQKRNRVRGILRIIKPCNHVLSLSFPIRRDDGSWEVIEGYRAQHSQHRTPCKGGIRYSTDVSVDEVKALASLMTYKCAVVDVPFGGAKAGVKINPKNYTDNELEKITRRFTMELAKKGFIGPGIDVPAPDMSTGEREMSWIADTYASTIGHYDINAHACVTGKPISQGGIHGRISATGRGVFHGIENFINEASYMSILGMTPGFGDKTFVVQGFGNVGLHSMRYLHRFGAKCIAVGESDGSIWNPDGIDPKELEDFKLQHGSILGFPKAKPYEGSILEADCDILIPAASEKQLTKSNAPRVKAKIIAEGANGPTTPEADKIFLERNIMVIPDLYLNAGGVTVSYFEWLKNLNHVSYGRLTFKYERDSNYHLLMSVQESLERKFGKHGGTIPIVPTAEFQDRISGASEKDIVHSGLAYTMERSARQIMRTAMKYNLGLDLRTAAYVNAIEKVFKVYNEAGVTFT
# UniProt P35626: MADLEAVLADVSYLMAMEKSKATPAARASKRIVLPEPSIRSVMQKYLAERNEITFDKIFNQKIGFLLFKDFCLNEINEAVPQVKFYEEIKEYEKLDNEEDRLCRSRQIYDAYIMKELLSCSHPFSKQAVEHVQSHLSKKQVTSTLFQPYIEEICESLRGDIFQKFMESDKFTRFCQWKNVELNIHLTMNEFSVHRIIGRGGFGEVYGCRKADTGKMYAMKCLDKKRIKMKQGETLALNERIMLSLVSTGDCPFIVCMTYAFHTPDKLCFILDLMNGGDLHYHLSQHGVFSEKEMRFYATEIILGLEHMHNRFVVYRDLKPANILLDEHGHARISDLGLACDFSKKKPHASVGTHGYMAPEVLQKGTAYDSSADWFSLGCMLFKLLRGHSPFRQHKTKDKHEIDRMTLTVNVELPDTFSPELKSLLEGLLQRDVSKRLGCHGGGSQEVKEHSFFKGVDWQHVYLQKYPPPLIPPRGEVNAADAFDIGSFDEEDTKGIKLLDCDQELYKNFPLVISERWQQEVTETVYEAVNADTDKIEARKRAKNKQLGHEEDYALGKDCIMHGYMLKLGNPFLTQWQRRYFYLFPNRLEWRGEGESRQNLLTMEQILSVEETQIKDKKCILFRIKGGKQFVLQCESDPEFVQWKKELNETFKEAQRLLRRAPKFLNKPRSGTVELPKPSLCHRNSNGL
# UniProt Q9BYB4: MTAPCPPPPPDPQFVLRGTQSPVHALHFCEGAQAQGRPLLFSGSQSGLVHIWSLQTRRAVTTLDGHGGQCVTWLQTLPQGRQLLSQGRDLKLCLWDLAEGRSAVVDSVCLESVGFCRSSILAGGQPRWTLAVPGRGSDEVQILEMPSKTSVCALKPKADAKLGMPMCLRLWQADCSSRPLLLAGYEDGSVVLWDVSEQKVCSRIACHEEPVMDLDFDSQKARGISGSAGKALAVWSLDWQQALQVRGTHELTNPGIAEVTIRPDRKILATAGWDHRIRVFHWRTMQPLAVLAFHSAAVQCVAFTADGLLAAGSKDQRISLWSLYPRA
# UniProt Q9NZD2: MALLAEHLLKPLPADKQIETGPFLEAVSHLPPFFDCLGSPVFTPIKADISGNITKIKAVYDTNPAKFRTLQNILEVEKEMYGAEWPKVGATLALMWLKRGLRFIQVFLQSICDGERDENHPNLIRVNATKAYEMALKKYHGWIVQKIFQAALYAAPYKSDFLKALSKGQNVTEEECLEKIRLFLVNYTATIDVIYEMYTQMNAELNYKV
# UniProt Q9BRR8: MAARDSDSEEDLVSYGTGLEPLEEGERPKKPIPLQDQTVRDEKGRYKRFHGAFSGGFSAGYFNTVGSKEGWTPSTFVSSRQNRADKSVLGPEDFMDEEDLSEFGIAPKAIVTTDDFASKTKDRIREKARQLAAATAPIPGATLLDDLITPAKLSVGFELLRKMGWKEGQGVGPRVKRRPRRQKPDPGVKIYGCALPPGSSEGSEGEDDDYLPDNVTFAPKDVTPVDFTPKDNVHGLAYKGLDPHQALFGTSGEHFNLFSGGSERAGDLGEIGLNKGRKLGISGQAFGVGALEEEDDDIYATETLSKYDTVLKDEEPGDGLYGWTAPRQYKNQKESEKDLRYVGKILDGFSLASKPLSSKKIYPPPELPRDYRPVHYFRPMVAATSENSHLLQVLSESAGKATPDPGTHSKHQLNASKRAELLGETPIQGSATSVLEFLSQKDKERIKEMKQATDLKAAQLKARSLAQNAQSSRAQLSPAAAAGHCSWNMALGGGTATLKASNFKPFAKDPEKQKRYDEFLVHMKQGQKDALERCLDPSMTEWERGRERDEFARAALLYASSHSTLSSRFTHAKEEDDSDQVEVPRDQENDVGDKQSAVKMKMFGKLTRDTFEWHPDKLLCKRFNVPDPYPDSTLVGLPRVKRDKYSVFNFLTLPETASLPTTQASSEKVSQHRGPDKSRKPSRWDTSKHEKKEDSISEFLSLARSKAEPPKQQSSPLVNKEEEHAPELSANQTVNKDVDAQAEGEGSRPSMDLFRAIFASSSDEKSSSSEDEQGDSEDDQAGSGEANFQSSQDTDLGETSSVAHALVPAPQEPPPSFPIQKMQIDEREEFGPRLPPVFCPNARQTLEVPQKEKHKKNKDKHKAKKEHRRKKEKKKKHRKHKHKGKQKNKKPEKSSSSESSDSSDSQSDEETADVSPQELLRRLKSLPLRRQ
# UniProt Q49A26, 241-269: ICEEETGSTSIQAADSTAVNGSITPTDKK
# UniProt P49841: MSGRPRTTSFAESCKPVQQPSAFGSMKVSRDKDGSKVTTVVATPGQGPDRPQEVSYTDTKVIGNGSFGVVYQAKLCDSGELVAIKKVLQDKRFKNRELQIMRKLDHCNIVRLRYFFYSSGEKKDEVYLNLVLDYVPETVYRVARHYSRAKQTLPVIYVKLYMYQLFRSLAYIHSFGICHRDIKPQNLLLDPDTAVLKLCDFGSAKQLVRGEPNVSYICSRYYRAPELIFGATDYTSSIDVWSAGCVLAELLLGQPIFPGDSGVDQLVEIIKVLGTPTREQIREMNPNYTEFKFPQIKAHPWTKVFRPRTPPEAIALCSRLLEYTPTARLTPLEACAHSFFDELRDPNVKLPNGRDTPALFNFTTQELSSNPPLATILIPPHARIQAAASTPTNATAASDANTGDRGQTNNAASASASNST
# UniProt P62879: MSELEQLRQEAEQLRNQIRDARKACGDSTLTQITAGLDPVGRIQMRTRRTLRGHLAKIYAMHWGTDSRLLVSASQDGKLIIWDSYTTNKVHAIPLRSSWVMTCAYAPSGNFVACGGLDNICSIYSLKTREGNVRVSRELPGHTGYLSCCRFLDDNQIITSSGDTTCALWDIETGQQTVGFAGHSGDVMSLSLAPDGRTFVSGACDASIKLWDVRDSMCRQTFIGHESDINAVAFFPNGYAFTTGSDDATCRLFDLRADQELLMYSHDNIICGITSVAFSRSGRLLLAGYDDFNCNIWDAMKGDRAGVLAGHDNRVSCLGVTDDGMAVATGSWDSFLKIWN
# UniProt Q9BVM4: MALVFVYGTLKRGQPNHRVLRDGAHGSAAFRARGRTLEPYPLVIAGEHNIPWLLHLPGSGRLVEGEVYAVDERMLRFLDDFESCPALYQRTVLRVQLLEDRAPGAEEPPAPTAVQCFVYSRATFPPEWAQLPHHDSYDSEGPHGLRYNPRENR
# UniProt P16383: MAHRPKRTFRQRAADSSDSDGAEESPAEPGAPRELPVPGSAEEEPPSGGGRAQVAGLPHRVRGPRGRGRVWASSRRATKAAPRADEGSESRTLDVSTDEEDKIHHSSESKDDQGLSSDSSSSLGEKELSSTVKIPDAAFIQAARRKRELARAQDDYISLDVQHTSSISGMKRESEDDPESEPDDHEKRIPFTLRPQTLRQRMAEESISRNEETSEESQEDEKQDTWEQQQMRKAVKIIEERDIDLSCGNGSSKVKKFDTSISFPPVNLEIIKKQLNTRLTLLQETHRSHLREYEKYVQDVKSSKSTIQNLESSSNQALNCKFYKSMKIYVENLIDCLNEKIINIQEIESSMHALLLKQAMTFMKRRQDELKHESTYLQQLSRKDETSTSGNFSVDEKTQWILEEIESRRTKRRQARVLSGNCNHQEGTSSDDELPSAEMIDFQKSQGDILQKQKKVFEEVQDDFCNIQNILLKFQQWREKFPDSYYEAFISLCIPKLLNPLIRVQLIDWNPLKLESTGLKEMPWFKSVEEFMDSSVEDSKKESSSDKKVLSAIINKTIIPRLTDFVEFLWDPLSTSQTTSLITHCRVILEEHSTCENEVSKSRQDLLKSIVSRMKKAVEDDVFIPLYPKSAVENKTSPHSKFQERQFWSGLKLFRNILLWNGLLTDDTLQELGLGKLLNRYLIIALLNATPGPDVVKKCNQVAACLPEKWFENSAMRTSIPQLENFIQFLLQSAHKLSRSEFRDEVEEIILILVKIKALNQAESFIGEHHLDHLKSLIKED
# UniProt Q4ZG55, 1783-1802: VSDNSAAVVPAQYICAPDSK
# The other results are listed elsewhere or left out. The data scatter; read single values as rough.
# Compound: ClCC(=O)N[C@H]1CCCc2ccccc12
# Assay: log2 mean competition ratio of IA-DTB cysteine labelling (DMSO/compound) (log2 ratio); higher = stronger cysteine engagement by compound
# Details: 50 µM; treatment time: 4 h; cell line lysate: HEK293T
# Procedure: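 IA-DTB competitive cysteine chemoproteomics in HEK293T RIPA lysate. Lysates were treated with compound 29 or 30 at 50 or 200 µM for 4 h, then IA-DTB (500 µM, 1 h), trypsin-digested, NeutrAvidin-enriched and analysed by diaPASEF. Competition ratio = intensity DMSO / intensity compound (n=4 treated, n=64 DMSO); binding: mean log2 CR ≥ 1 and p ≤ 0.05 plus QC filters. Target is the cysteine site.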
row,Target,log2 mean competition ratio
1,GEMIN5 C806 (UniProt Q8TEQ6),0.00755
2,GMPR C186 (UniProt P36959),-0.211
3,GRHPR C288 (UniProt Q9UBQ7),-0.000863
4,GSPT1 C237 (UniProt P15170),-0.288
5,GLUD1 C172 (UniProt P00367),-0.195
6,GRK3 C340 (UniProt P35626),-0.348
7,GNB1L C5 (UniProt Q9BYB4),0.0956
8,GLTP C176 (UniProt Q9NZD2),-0.377
9,GNA13 C329 (UniProt Q14344),0.389
10,GPATCH1 C534 (UniProt Q9BRR8),0.0139
11,GINS3 C188 (UniProt Q9BRX5),0.0406
12,GDI2 C282,-0.257
13,GLYR1 C242 (UniProt Q49A26),-0.292
14,GSK3B C76 (UniProt P49841),-0.371
15,GNB2 C204 (UniProt P62879),-0.00234
16,GPRIN1 C428 (UniProt Q7Z2K8),-0.708
17,GGACT C84 (UniProt Q9BVM4),-0.0665
18,GCFC2 C320 (UniProt P16383),0.495
19,GREB1 C1797 (UniProt Q4ZG55),-0.0577
20,GOLPH3 C280 (UniProt Q9H4A6),0.0801

# Same assay, conditions: 200 µM; treatment time: 4 h; cell line lysate: HEK293T
row,Target,log2 mean competition ratio
1,GEMIN5 C806 (UniProt Q8TEQ6),-0.0193
2,GMPR C186 (UniProt P36959),0.0141
3,GRHPR C288 (UniProt Q9UBQ7),-0.0916
4,GSPT1 C237 (UniProt P15170),0.091
5,GLUD1 C172 (UniProt P00367),0.033
6,GRK3 C340 (UniProt P35626),-0.0378
7,GNB1L C5 (UniProt Q9BYB4),0.136
8,GLTP C176 (UniProt Q9NZD2),-0.287
9,GNA13 C329 (UniProt Q14344),-0.0121
10,GPATCH1 C534 (UniProt Q9BRR8),0.3
11,GINS3 C188 (UniProt Q9BRX5),-0.0965
12,GDI2 C282,0.261
13,GLYR1 C242 (UniProt Q49A26),-0.501
14,GSK3B C76 (UniProt P49841),0.0752
15,GNB2 C204 (UniProt P62879),-0.125
16,GPRIN1 C428 (UniProt Q7Z2K8),0.195
17,GGACT C84 (UniProt Q9BVM4),0.136
18,GCFC2 C320 (UniProt P16383),0.964
19,GREB1 C1797 (UniProt Q4ZG55),-0.00728
20,GOLPH3 C280 (UniProt Q9H4A6),0.596
